Experimental data reported in PubChem BioAssay AID1347423 (Functional Genomics Laboratory (NCATS/FGL), 2020).
Hit rate of the full screen: of about 52,000 sequences, about 210 (0.4%) were called active.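 Rule for the calls: active = gene whose silencing raises cell survival under the drug, median off-target-corrected z-score across its silencing RNAs 2 or more; inactive = the rest.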 The list shows a part of the results.

Assay: Resistance to Poly (ADP-Ribose) Polymerase inhibitor: Gene Identification via Genome-wide siRNA Screen
Settings: mouse BRCA2 R2336H ES cells, olaparib, CellTiter-Glo viability; stronger effect = higher value
In short: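 Genome-wide siRNA screen (3 siRNAs/gene, 20 nM) in mouse ES cells carrying hypomorphic BRCA2 R2336H; olaparib 500 nM added 48 h post-transfection, CellTiter-Glo viability 72 h later. Normalized to plate-median negative control; MAD z-scores, gene median, seed-adjusted.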

Row | Sequence | z-score
1 | GCCAUUAAGGAAAUGUUCUTT against Olfr426 | inactive: -1.34
2 | GCGAGACAAUUGUUAUUGATT against Zfp198 | inactive: -0.48
3 | GGAAGUUUUUGAGAAUGGGTT against Ppp3cc | inactive: 1.72
4 | CCUACUGUGCAUAGGUCUCTT against Tm4sf7 | inactive: -0.303
5 | GGACAGGCAGAGUUUACAGTT against Rit1 | inactive: 1.04
6 | CGGAUAACGGGAAUUUUAUTT against Rpia | inactive: 0.76
7 | GGCUAUCUGAUUUUUGUUGTT against Cias1 | inactive: 0.868
8 | GCAUUUCCCAUCCUCUUGATT against Mrpl51 | inactive: -2.97
9 | GCUCAGUAAGGUUACUUCCTT against Epb4.9 | inactive: 0.857
10 | GGAGGUAGCCCUUCAGAUGTT against Punc | inactive: -2.56
11 | CGAGUAAGUUCAAUAGACCTT against Olfr954 | inactive: 1.22
12 | GGUAUUAGAAAUCCUGAUCTT against Miz1 | inactive: -0.33
13 | GGCUUUCGCCUGAUUGGGUTT against 9130416B15 | inactive: 1.27
14 | GGACAAGUUCAGCUACAUCTT against Ranbp9 | inactive: 0.141
15 | GCUCCUACUGUCCAGCAAUTT against Dusp18 | inactive: 2.63
16 | GGGAUAUAGAACUGUUGAUTT against Olfr1048 | inactive: -0.278
17 | GCUAGUCUAGCCAUUGUCATT against Lamp3 | inactive: -0.634
18 | GCCCUCUUGUGAUUAAGCATT against Esr1 | inactive: 0.0447
19 | CCAUCAGCCUUUAUAAACUTT against Ywhah | inactive: 0.577
20 | GGUGAUAUCUUUCCAUCUUTT against Wiz | inactive: 0.462
21 | GGACCAUGCUCCCUACUUATT against 1700016G05Rik | inactive: -1.63
22 | GGAAGAAGAGGAGGAGAUGTT against Zfp67 | inactive: -0.941
23 | GGCAUUCACGUGUACUCCUTT against Pres | inactive: 0.478

Three entries from above, as tab-separated lines:
Row	Sequence	z-score
5	GGACAGGCAGAGUUUACAGTT against Rit1	inactive: 1.04
13	GGCUUUCGCCUGAUUGGGUTT against 9130416B15	inactive: 1.27
19	CCAUCAGCCUUUAUAAACUTT against Ywhah	inactive: 0.577

Remaining list, next part

Row | Sequence | z-score
24 | GGACGAGUGCCUGUUUUCATT against Med8 | inactive: -0.587
25 | CCAUGGAAACUGAAUUCUGTT against 3230401I01Rik | inactive: 0.382
26 | GGACAUAGAAUCUUUACAGTT against Wdr9 | inactive: -0.592
27 | CCUAAACUGCUUGCUGAUATT against Olfr1204 | inactive: 0.755
28 | GUGCUAUUCAUGCACAGCATT against Psca | inactive: -1.7
29 | CGGUGAAAAACCUAUGUAUTT against 1700028P14Rik | inactive: 0.894
30 | GCUCUUAGAUACAGUUUUATT against Aprin | inactive: -0.724
31 | GGAAUGCUAUGUGUAUAGUTT against 9130023D20Rik | inactive: 1.07
32 | GGUUUGAGCAACUAACUAATT against Lhx2 | inactive: 1.05
33 | CCAAUGAGAGUUCUAUGAUTT against Cxxc4 | inactive: -0.54
34 | GGAUCAAAUGUGGCAUAUUTT against Rassf5 | inactive: -1.64
35 | GCCUUUGCGUUAUGCUACUTT against Olfr610 | inactive: -1.02
36 | GGCACUGCAUAUUUGGUAUTT against Dmrtc2 | inactive: -0.914
37 | GGUAAUCAGUAGUGACUUATT against Mkln1 | inactive: 0.498
38 | GGCAUCAUACUGAUUGGUGTT against Suclg1 | inactive: 0.058
39 | GGUCCUCAUUUAUUGAAAUTT against Cdkn1b | inactive: 0.481
40 | GGACCUCUUCUCUGUCUUUTT against 2300004C15Rik | inactive: -1.27
41 | GGCCCUUACAGAGUCUGGATT against B930095G15Rik | inactive: -1.39
42 | GGCUUCCUGAUGGAUUUAUTT against Stk11ip | inactive: -2.01
43 | GCAAUGGUGAGCAUUAAAATT against 2010002M12Rik | inactive: 0.458
44 | GGACAAUGAAGAUUUGGAATT against Ush2a | inactive: 0.208
45 | CCAAGAAGCUCCCACGAUATT against Gm839 | inactive: 0.641
46 | CGGCCUGGGUCCCGUGGACTT against LOC328779 | inactive: 2.22

Row | Sequence | z-score
47 | CCACAUUCAGCCAAUGAAGTT against Olfr195 | inactive: -0.0256
48 | GGUGUAUGAACAGCUCUAUTT against Lin7b | inactive: 0.263
49 | GGGCUCCUCAAUCACAAAUTT against Slc27a5 | inactive: -0.504
50 | CGUGGCCGUUAGUUGUAAATT against BC059177 | inactive: 0.289
51 | GGGAUUGAGAUCCUCAUACTT against Olfr1179 | inactive: 0.762
52 | GCUCCAAUAGCGUAUAUUATT against Pigt | inactive: -1.62
53 | GGUCAUAGCUUAGAAGGUGTT against Rhov | inactive: -1.09
54 | GGACCAUAAAACAAGUAUCTT against AI790298 | inactive: -0.629
55 | GCAAUACGUUUGUGCAGAATT against Cacna1g | inactive: -2.42
56 | GCAGUAAACUCCUAGGUCATT against 2410066E13Rik | inactive: -0.601
57 | CCUUCAGACUGUCAACAAUTT against Chrm2 | inactive: 0.451
58 | GGAUGGGUUGAAUUGUUUGTT against C730040N12Rik | inactive: -0.104
59 | GGAAGGUCAAAGUCCUUUATT against Pitpnm2 | inactive: 1.18
60 | GCCUGUUUAGAGCGUAAACTT against Numb | inactive: 0.888
61 | GGCUACAAUAAUGUUUCCCTT against Pglyrp3 | inactive: 0.155
62 | GGCUUCCACAAAGAAAGACTT against Tsga8 | inactive: 0.591
63 | GGUGUACAUGGACAUCAAGTT against Ppie | inactive: 1.39
64 | GGCAGAUAGACAACUUUCUTT against Olfr92 | inactive: -1.19
65 | GGGUUAGCUCCCGUCAUCATT against 9830132G07Rik | inactive: 0.867
66 | GGCCAACUGGUAUUUCUUGTT against Acadm | inactive: -0.486
67 | GGAAAUGAAGCAGACUGUGTT against Htr2b | inactive: 0.262
